# Earlier results in patent publication US20260104424A1, “METHODS, SYSTEMS AND KITS FOR IDENTIFYING BIOACTIVE COMPOUNDS AND THERAPEUTIC METHODS AND COMPOSITIONS” (priority 2022, published 2026).
# Some entries share one result that the patent states for a list of compounds. Some ranges recur; such a range may be that of the whole group of compounds.
# Target: cell-surface EGFR (Homo sapiens, UniProt P00533)
# Conditions: binding to cell-surface EGFR; read-out: apparent Kd; cited from earlier work
row,Substance,Kd [nM]
1,heparin binding EGF-like growth factor [HBEGF],0.1 to 1
2,betacellulin [BTC],0.1 to 1
3,transforming growth factor-A [TGFA],0.1 to 1
